Experimental data: publication PMC5016123
These are yes or no findings as the source states them, for the method shown. Binding seen in cells or lysates may run through a third protein. Sequences can lack the tags named with a protein.

Molecular target: T1, GST-fused polo-box domain (PBD) of Cdc5, wild type (S. cerevisiae) (UniProt P32562)
T1 sequence: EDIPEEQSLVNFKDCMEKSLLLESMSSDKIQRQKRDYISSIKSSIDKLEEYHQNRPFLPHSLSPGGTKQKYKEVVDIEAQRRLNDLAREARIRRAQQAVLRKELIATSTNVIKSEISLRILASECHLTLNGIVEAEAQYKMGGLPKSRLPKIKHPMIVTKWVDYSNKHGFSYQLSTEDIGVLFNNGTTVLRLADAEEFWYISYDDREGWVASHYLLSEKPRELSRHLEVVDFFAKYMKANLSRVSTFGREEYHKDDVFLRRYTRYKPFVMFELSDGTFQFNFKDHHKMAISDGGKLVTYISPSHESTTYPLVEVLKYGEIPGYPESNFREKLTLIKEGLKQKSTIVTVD
Experiment: pull-down; GST-fused PBD, Cdc5 or GST only and an HA-tagged cohesin subunit or Scc1 fragment co-overexpressed in G2/M-arrested (benomyl) yeast cells; clarified lysate on glutathione-Sepharose 4B beads 1 h at 4 °C; 40 mM Hepes-KOH pH 7.4, 140 mM NaCl, 10% glycerol, 0.1% Triton X-100, 1 mM DTT, protease and phosphatase inhibitors; three washes; anti-HA and anti-GST Western blot

## HA-tagged Scc1 fragment ΔMC2 (S. cerevisiae) (domain or fragment)
  binding: no binding
